# These are yes or no findings as the source states them, for the method shown. Binding seen in cells or lysates may run through a third protein. Some entries that bind do so weakly or less than the wild type. For some assays here: Tags and fused reporters may be left off the sequences shown.
# Amino acid sequences for entries named in this document (tags omitted).
# UniProt Q9Y572: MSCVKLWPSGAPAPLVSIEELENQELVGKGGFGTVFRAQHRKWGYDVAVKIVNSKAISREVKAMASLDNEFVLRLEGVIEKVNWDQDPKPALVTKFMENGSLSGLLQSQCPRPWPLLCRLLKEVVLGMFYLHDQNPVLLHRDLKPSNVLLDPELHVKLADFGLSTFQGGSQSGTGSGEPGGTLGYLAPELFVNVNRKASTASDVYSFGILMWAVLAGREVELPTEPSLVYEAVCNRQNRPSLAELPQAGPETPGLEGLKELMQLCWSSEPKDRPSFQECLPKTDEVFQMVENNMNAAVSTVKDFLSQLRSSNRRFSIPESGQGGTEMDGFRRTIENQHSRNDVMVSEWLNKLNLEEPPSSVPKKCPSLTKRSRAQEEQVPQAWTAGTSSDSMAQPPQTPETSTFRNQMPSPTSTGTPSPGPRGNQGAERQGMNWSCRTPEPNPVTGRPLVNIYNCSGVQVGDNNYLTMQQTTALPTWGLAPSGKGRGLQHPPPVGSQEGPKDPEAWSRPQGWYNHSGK
# T1: SPAG9-Flag (UniProt O60271)
# T1 sequence: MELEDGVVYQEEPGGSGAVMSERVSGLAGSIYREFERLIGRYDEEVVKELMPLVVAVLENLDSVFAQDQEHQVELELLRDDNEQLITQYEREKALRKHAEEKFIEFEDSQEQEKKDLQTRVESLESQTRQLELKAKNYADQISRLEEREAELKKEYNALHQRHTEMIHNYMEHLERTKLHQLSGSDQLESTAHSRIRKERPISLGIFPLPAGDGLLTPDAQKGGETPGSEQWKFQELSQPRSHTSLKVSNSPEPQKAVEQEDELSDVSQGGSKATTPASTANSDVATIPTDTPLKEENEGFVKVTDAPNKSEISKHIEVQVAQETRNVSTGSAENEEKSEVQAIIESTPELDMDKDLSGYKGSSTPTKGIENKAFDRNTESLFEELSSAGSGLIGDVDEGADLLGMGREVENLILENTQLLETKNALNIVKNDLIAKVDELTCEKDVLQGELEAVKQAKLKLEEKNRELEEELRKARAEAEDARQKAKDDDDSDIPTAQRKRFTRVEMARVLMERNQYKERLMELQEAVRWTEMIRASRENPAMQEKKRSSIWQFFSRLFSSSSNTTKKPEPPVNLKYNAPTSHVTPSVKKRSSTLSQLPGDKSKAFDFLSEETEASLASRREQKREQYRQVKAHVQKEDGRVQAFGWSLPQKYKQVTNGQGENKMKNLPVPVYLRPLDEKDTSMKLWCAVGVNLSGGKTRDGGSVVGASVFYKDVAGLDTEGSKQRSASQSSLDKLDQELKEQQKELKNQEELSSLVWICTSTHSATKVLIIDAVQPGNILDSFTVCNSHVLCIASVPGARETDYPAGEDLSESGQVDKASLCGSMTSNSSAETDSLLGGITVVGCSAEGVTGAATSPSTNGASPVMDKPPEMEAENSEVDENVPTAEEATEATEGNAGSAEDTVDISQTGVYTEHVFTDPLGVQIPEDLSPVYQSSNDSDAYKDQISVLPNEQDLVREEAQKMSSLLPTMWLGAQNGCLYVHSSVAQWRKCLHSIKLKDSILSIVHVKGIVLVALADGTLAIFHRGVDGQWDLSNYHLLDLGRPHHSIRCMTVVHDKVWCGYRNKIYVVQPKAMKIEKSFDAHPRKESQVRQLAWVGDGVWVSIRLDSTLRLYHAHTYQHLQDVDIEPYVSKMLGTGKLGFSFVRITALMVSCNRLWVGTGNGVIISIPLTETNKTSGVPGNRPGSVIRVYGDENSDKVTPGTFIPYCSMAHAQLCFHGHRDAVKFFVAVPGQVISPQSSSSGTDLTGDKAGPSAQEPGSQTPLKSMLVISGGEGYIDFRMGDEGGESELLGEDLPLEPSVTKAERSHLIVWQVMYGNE
# Columns and labels:
# Experiment in all cases: co-IP
# RIPK3 = RIPK3 (UniProt Q9Y572)
# SPAG9-Flag = target: T1, SPAG9-Flag
# [1] = target: RIPK3 (endogenous, RAW264.7) (mouse (endogenous in RAW264.7)), Q9QZL0; conditions: remark: other sources report otherwise
binding (RIPK3),binding (SPAG9-Flag),binding [1],Binder
binds,binds,,"DNA-dependent activator of interferon-regulatory factor (DAI) (protein, UniProt Q9H171 1-429) MAQAPADPGREGHLEQRILQVLTEAGSPVKLAQLVKECQAPKRELNQVLYRMKKELKVSLTSPATWCLGGTDPEGEGPAELALSSPAERPQQHAATIPETPGPQFSQQREEDIYRFLKDNGPQRALVIAQALGMRTAKDVNRDLYRMKSRHLLDMDEQSKAWTIYRPEDSGRRAKSASIIYQHNPINMICQNGPNSWISIANSEAIQIGHGNIITRQTVSREDGSAGPRHLPSMAPGDSSTWGTLVDPWGPQDIHMEQSILRRVQLGHSNEMRLHGVPSEGPAHIPPGSPPVSATAAGPEASFEARIPSPGTHPEGEAAQRIHMKSCFLEDATIGNSNKMSISPGVAGPGGVAGSGEGEPGEDAGRRPADTQSRSHFPRDIGQPITPSHSKLTPKLETMTLGNRSHKAAEGSHYVDEASHEGSWWGGGI"
binds,,,"DAI-TurboID (protein, UniProt Q9H171 1-429) MAQAPADPGREGHLEQRILQVLTEAGSPVKLAQLVKECQAPKRELNQVLYRMKKELKVSLTSPATWCLGGTDPEGEGPAELALSSPAERPQQHAATIPETPGPQFSQQREEDIYRFLKDNGPQRALVIAQALGMRTAKDVNRDLYRMKSRHLLDMDEQSKAWTIYRPEDSGRRAKSASIIYQHNPINMICQNGPNSWISIANSEAIQIGHGNIITRQTVSREDGSAGPRHLPSMAPGDSSTWGTLVDPWGPQDIHMEQSILRRVQLGHSNEMRLHGVPSEGPAHIPPGSPPVSATAAGPEASFEARIPSPGTHPEGEAAQRIHMKSCFLEDATIGNSNKMSISPGVAGPGGVAGSGEGEPGEDAGRRPADTQSRSHFPRDIGQPITPSHSKLTPKLETMTLGNRSHKAAEGSHYVDEASHEGSWWGGGI"
binds,,,"TurboID-DAI (protein, UniProt Q9H171 1-429) MAQAPADPGREGHLEQRILQVLTEAGSPVKLAQLVKECQAPKRELNQVLYRMKKELKVSLTSPATWCLGGTDPEGEGPAELALSSPAERPQQHAATIPETPGPQFSQQREEDIYRFLKDNGPQRALVIAQALGMRTAKDVNRDLYRMKSRHLLDMDEQSKAWTIYRPEDSGRRAKSASIIYQHNPINMICQNGPNSWISIANSEAIQIGHGNIITRQTVSREDGSAGPRHLPSMAPGDSSTWGTLVDPWGPQDIHMEQSILRRVQLGHSNEMRLHGVPSEGPAHIPPGSPPVSATAAGPEASFEARIPSPGTHPEGEAAQRIHMKSCFLEDATIGNSNKMSISPGVAGPGGVAGSGEGEPGEDAGRRPADTQSRSHFPRDIGQPITPSHSKLTPKLETMTLGNRSHKAAEGSHYVDEASHEGSWWGGGI"
,,binds,"RIPK1 (endogenous, RAW264.7), Q60855 1-656 (protein) MQPDMSLDNIKMASSDLLEKTDLDSGGFGKVSLCYHRSHGFVILKKVYTGPNRAEYNEVLLEEGKMMHRLRHSRVVKLLGIIIEEGNYSLVMEYMEKGNLMHVLKTQIDVPLSLKGRIIVEAIEGMCYLHDKGVIHKDLKPENILVDRDFHIKIADLGVASFKTWSKLTKEKDNKQKEVSSTTKKNNGGTLYYMAPEHLNDINAKPTEKSDVYSFGIVLWAIFAKKEPYENVICTEQFVICIKSGNRPNVEEILEYCPREIISLMERCWQAIPEDRPTFLGIEEEFRPFYLSHFEEYVEEDVASLKKEYPDQSPVLQRMFSLQHDCVPLPPSRSNSEQPGSLHSSQGLQMGPVEESWFSSSPEYPQDENDRSVQAKLQEEASYHAFGIFAEKQTKPQPRQNEAYNREEERKRRVSHDPFAQQRARENIKSAGARGHSDPSTTSRGIAVQQLSWPATQTVWNNGLYNQHGFGTTGTGVWYPPNLSQMYSTYKTPVPETNIPGSTPTMPYFSGPVADDLIKYTIFNSSGIQIGNHNYMDVGLNSQPPNNTCKEESTSRHQAIFDNTTSLTDEHLNPIRENLGRQWKNCARKLGFTESQIDEIDHDYERDGLKEKVYQMLQKWLMREGTKGATVGKLAQALHQCCRIDLLNHLIRASQS"

# — paper PMC9239253
